What was measured:
[1] = tested on: wounds following necrosis and sloughing of spontaneous tumours; assay: Resolution of wounds after sloughing of spontaneous tumours treated by intratumoural injection, feline; type: in vivo; settings: wound size class 0.25 to 12 cm^2, 3 cases
Method: (§1) Veterinary clinical data on speed of resolution of wounds that formed following necrosis and sloughing of spontaneous tumours that had been treated by intratumoural injection of Compound 1 (30% 1,2 propanediol formulation at either 0.5 or 1.0 mg/mL concentration) in twenty-four companion animals are summarised in Table 17.
(§2) Note that all wounds were managed as open wounds and no bandaging, dressings, lotions or concomitant medications were used in any of these cases.

[2] = tested on: wounds following necrosis and sloughing of spontaneous tumours; assay: Resolution of wounds after sloughing of spontaneous tumours treated by intratumoural injection, equine; type: in vivo
Method: as §1, §2

[3] = wound size class 0.25 to 9 cm^2, 4 cases
[4] = wound size class 9 to 50 cm^2, 2 cases

Structure (SMILES): CC=C(C)C(=O)OC1C(C)C2(O)C(C3OC3(CO)C(O)C3(O)C(=O)C(C)=CC32)C2C(C)(C)C12OC(=O)C(C)CC (stereo not drawn) [Compound 1, 12-tigloyl-13-(2-methylbutanoyl)-6,7-epoxy-4,5,9,12,13,20-hexahydroxy-1-tigliaen-3-one]
- Average wound area [1]: 4.8 ± 6.3 cm^2
- Average wound depth [1]: 5.0 ± 4.3 mm
- Average wound area [2, 3]: 2.9 ± 1.4 cm^2
- Average wound depth [2, 3]: 7.5 ± 2.9 mm
- Average wound area [2, 4]: 19.5 ± 14.5 cm^2
- Average wound depth [2, 4]: 10.0 ± 0 mm
